Some of these results come from one statement about several compounds together. At least one structure is not confirmed: it was looked up by name or label, or the drawing left a doubt.
Tests used:
Type in all cases: in vivo
[1] = test system: Kunming mice; assay: Influence on hypnosis effect with pentobarbital sodium doses below the threshold (25 mg/kg i.p.); conditions: sodium pentobarbital 25 mg/kg i.p. 60 min after drug; observed 30 min; low, middle and high dose; P<0.05˜P<0.001
Source text: (§1) 1.1 Animals for experiments: Kunming mice, weighting 18.9˜22.2 g for females, and 20.2˜23.0 g for males, licensed under SCXK-(Ji) 2007-0003, and provided by The experimental animal centre, Jilin University.
(§2) 1.2 Chemicals for experiments: The flavone derivatives provided in Examples 1-41 and the flavanone derivatives provided in Examples 42-71 are all formulated with 0.5% sodium carboxymethyl cellulose as solutions with required concentrations.
(§3) 1.3 Grouping of animals: 6420 animals are employed in the entire experiments and 2140 of the animals are randomly divided into 214 groups by gender, and the […] include: control group, low dosage group for each experimental drugs (25 mg/kg), medium dosage group for each experimental drugs (50 mg/kg), and high dosage group for each experimental drugs (100 mg/kg). Each group has 10 animals and either female or male constitutes half of the group. The groups are used in behavior observation and voluntary action observation. The other 4280 animals are randomly divided into 214 groups by gender respectively (the grouping way is the same with that described above). Each group has 20 animals and either female or male constitutes half of the group. In each group, 10 animals are used in hypnosis experimentations with pentobarbital sodium doses below the threshold, and the other 10 animals are used hypnosis experimentations with pentobarbital sodium doses at the threshold.
1.5.3 Influence on Hypnosis Effect with Mice Pentobarbital Sodium Doses Below the Threshold
(§4) The drug is intragastric administered in mice for single time, 2 animals of each group are given drug per round with the dosing interval of 40 min (±5 min). According to the administration round, in 60 min (±5 min) of each round after the drug administration, the animals were intraperitoneally injected 0.3% sodium pentobarbital 25 mg/kg, respectively. Sleep condition of the animals were observed within 30 min (under sleep determination standard of loss of righting reflex more than 1 min). After animals undergo loss of righting reflex, number of the animals is recorded, to calculate sleep percentage.
(§5) Number of autonomic activities is detected by leneve Test for homogeneity of variance. If the homogeneity of variance is good (P>0.05), statistical analysis is performed with ANOVA. If ANOVA have statistical significance (P≦0.05), Dunnett's test for multiple comparisons analysis is performed. Number of animals of sleeping mice is applied of ANOVA. Incidence rate of animal asleep is applied of χ2 test. Sleep latency and sleep duration are recorded in min, averaged by group, represented by standard deviation, and undergo statistical analysis using ANOVA.

[2] = test system: Kunming mice; assay: Influence on hypnosis effect with pentobarbital sodium doses at the threshold (50 mg/kg i.p.); conditions: sodium pentobarbital 50 mg/kg i.p. 60 min after drug; low, middle and high dose; P<0.05˜P<0.001
Source text: as §1, §2, §3
1.5.4 Influence on Hypnosis Effect with Mice Pentobarbital Sodium Doses at the Threshold
as §4, with “50” for “25”, “Time to fall asleep (sleep latency) and sleep duration” for “Sleep condition”, “recorded” for “observed”, “under” for “30 min (under”, “min.” for “min). After animals undergo loss of righting reflex, number of the animals is recorded, to calculate sleep percentage.”
as §5

[3] = test system: Kunming mice; assay: Influence on autonomic activity of normal mice (ZIL-2 mice autonomic activity meter, counts within 10 min); conditions: 1 h and 2 h after drug administration; low, middle and high dose (25, 50, 100 mg/kg); P<0.05˜P<0.001, dose-related
Source text: as §1, §2, §3
1.4 Experimental instrument and agents: ZIL-2 mice autonomic activity meter, production of Institute of Materia Medica of Chinese Academy of Medical Sciences; pentobarbital sodium, Lot: 100808, 25 g/bottle, Beijing Chemical Reagent Company equipment imported from Germany.
1.5.2 Influence on Autonomic Activity of Normal Mice
After observing the general behavior, in 1 h, 2 h and 24 h after drug administration, respectively, ZIL-2 mice autonomic activity meter is put respectively. Number of autonomic activities of each group of mice is measured within 10 min. Results among groups are compared.
as §5

SMILES | incidence of sleep compared with the control group [1] | time to fall asleep (sleep latency) compared with the control group [2] | autonomic activities compared with the control group [3]
COc1cc(OC)c2c(=O)cc(-c3ccccc3O)oc2c1OC [Example 3, 2′-hydroxyl-5,7,8-trimethoxyl-flavone] | increased at different level | reduced at different level | significantly reduced
COc1ccc(-c2cc(=O)c3c(OC)cc(O)cc3o2)cc1OC [Example 5, 7-hydroxyl-5,3′,4′-trimethoxyl-flavone] | increased at different level | reduced at different level | significantly reduced
COc1ccc(-c2cc(=O)c3c(OC)c(OC)c(OC)c(OC)c3o2)cc1OC [Example 14, 5,6,7,8,3′,4′-hexamethoxyl-flavone] | increased at different level | reduced at different level | significantly reduced
COc1ccc(C2CC(=O)c3c(O)c(OC)c(OC)c(OC)c3O2)cc1OC (stereo not shown) [Example 64, 5-hydroxyl-6,7,8,3′,4′-penta methoxyl-flavanone] | increased at different level | reduced at different level | significantly reduced
COc1cc(OC)c2c(c1)OC(c1cc(OC)c(OC)c(OC)c1OC)CC2=O (stereo not shown) [Example 66, 5,7,2′,3′,4′,5′-hexa methoxyl-flavanone] | increased at different level | reduced at different level | significantly reduced
COc1ccc(O)cc1-c1cc(=O)c2c(O)cc(OC)c(OC)c2o1 [Example 12, 5,5′-dihydroxyl-7,8,2′-trimethoxyl-flavone] | increased at different level | reduced at different level | significantly reduced
COc1cc(-c2cc(=O)c3c(OC)c(OC)c(OC)c(OC)c3o2)cc(OC)c1OC [Example 15, 5,6,7,8,3′,4′,5′-heptamethoxyl-flavone] | increased at different level | reduced at different level | significantly reduced
COc1ccc(-c2cc(=O)c3c(O)cc(OC)c(OC)c3o2)cc1O [Example 2, 5,3′-dihydroxyl-7,8,4′-trimethoxyl-flavone] | increased at different level | reduced at different level | significantly reduced
COc1cc(OC)c2c(=O)cc(-c3ccc(OC)c(O)c3)oc2c1 [Example 4, 3′-hydroxyl-5,7,4′-trimethoxyl-flavone] | increased at different level | reduced at different level | significantly reduced
COc1cc(-c2cc(=O)c3c(OC)c(OC)c(OC)cc3o2)cc(OC)c1OC [Example 13, 5,6,7,3′,4′,5′-hexamethoxyl-flavone] | increased at different level | reduced at different level | significantly reduced
COc1ccc(-c2cc(=O)c3c(O)c(OC)c(OC)c(OC)c3o2)cc1OC [Example 11, 5-hydroxyl-6,7,8,3′,4′-penta methoxyl-flavone] | increased at different level | reduced at different level | significantly reduced
COc1ccc(C2CC(=O)c3c(OC)c(OC)c(OC)c(OC)c3O2)cc1 (stereo not shown) [Example 47, 5,6,7,8,4′-penta methoxyl-flavanone] | increased at different level | reduced at different level | significantly reduced
COc1cc(C2Oc3c(OC)c(OC)c(OC)c(O)c3C(=O)C2OC)c(OC)c(OC)c1OC (stereo not shown) [Example 68, 5-hydroxyl-3,6,7,8,3′,4′,5′,6′-octa methoxyl-flavanone] | increased at different level | reduced at different level | significantly reduced
COc1cc(OC)c2c(c1)OC(c1cc(OC)c(OC)c(OC)c1)CC2=O (stereo not shown) [Example 46, 5,7,3′,4′,5′-penta methoxyl-flavanone] | increased at different level | reduced at different level | significantly reduced
COc1ccc(-c2cc(=O)c3c(OC)c(OC)c(OC)cc3o2)cc1OC [Example 10, 5,6,7,3′,4′-penta methoxyl-flavone] | increased at different level | reduced at different level | significantly reduced
COc1cc(OC)c2c(=O)cc(-c3cc(OC)c(OC)c(OC)c3)oc2c1 [Example 1, 5,7,3′,4′,5′-penta methoxyl-flavone] | increased at different level | reduced at different level | significantly reduced
COc1ccc(-c2cc(=O)c3c(OC)c(OC)c(OC)c(OC)c3o2)cc1 [Example 8, 5,6,7,8,4′-penta methoxyl-flavone] | increased at different level | reduced at different level | significantly reduced
COc1cc2c(c(OC)c1OC)OC(c1cc(OC)c(OC)c(OC)c1OC)CC2=O (stereo not shown) [Example 67, 6,7,8,3′,4′,5′,6′-hepta methoxyl-flavanone] | increased at different level | reduced at different level | significantly reduced
COc1cc(C2Oc3c(cc(OC)c(OC)c3OC)C(=O)C2OC)c(O)c(OC)c1OC (stereo not shown) [Example 69, 6′-hydroxyl-3,6,7,8,3′,4′,5′-hepta methoxyl-flavanone] | increased at different level | reduced at different level | significantly reduced
COc1ccc(-c2oc3c(OC)c(OC)c(OC)c(OC)c3c(=O)c2OC)cc1OC [Example 41, 3,5,6,7,8,3′,4′-heptamethoxyl-flavone] | increased at different level | reduced at different level | significantly reduced
COc1ccc(C2CC(=O)c3cc(OC)c(OC)c(OC)c3O2)cc1OC (stereo not shown) [Example 45, 6,7,8,3′,4′-penta methoxyl-flavanone] | increased at different level | reduced at different level | significantly reduced
COc1ccc(C2CC(=O)c3c(cc(OC)c(OC)c3OC)O2)cc1 (stereo not shown) [Example 65, 5,6,7,4′-tetra methoxyl-flavanone] |  |  | significantly reduced

— patent US9669003B2, “Use of flavone and flavanone derivatives in preparation of sedative and hypnotic drugs” (priority 2012, dated 2017)
